Paper PMC3302888, “Small-Animal PET Imaging of Amyloid-Beta Plaques with [^11C]PiB and Its Multi-Modal Validation in an APP/PS1 Mouse Model of Alzheimer's Disease” (PLoS ONE, 2012)
Values joined by “and” are separate entries in the source; they are usually repeats but may differ in a detail not shown here. Equal entries are not always repeated.

Tested on: Aβ plaques
Test: Histological quantification of relative Aβ plaque burden with Thioflavin S
Parameters: species or system mouse

With Thioflavin S the “Plaque load based on Thioflavin S binding in neocortex” value (shortened to “Plaque load based”) (ctl-old) was 0.61±0.17%, the “average cerebellar binding of Thioflavin S” value (shortened to “average cerebellar binding”) (ctl-old) was 0.66±0.13% and the “Histology % plaque area neocortex” value (individual animals AD1, AD2 (tgtg-young)) was 4.00% and 4.10%. For the same substance, the “Histology % plaque area neocortex” value (individual animals CTL1, CTL2 (ctl-young)) was 0.54% and 0.41%, the “Plaque load based” value (tg-old) was 7.72±1.03% and the “average cerebellar binding” value (tg-old) was 0.36±0.05%. The “Plaque load based” value (tgtg-old) was 11.78±1.63%, the “average cerebellar binding” value (tgtg-old) was 0.30±0.04% and the “Plaque load based” value (tgtg-young) was 4.68±0.70%. The “average cerebellar binding” value (tgtg-young) was 0.25±0.06%.
